Measured values taken from patent EP4455293A1.
Results are given in words; binding and its absence hold for the method and conditions named. Some entries that bind do so weakly or less than the wild type.

Protein sequences, listed by entry. Tags and fused reporters are not part of them. Lines headed by an entry give the natural chain unless they say otherwise; changes in a name come on top.
UniProt P09513: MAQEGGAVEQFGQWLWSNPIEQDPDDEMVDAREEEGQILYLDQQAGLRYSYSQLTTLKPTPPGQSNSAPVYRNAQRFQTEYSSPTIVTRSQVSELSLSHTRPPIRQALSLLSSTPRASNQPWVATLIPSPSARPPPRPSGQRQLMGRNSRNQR

Columns and labels:
[1] = target: HvVHA-E (barley V-type proton ATPase subunit E protein) (barley (Hordeum vulgare L.)); assay: yeast two-hybrid (GAL4; bait pGBKT7-BYDV_MP, prey pGADT7-HvVHA-E), yeast growth
[2] = target: HvVHA-E (barley V-type proton ATPase subunit E protein) (barley (Hordeum vulgare L.)); assay: yeast two-hybrid (GAL4; bait pGBKT7-BYDV_RTD, prey pGADT7-HvVHA-E), yeast growth

In the case of “BYDV MP protein (from UniProt P09513 1-152)”, the binding [1] is reported as “binds”.

With “BYDV RTD protein (from UniProt P09516 202-651)” the binding [2] was “binds”.
